Assay results from US5830994A (Institut Europeen De Biologie Cellulaire, priority 1993, dated 1998).

Assay: general procedure: Fmoc solid-phase peptide synthesis; MBHA resin
Conditions: whole synthesis

Substance: [(DL) Lip] Glu - His - D.homoPhe - Arg - Trp - Gly - NH2
- crude yield: 78%
- crude HPLC purity (HPLC): 82%
